## Library screening results

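Whole-cell assay for inhibitors of Mycobacterium tuberculosis growth, labelled Cornell in the record; the read-out is not stated. The concentration is filed as 10 mM, unlikely as a test dose, so the dose is not known. The record gives no direction; compounds strong in two other growth screens of this library score well above the rest, so higher reads as stronger inhibition. Of about 53,000 compounds tested this way, about 900 (1.7%) reached 50% or more in at least one test.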

Each number is a percent effect as filed. The record does not define 0% and 100%; most values in the screen are far below 50% and negative numbers occur (in some assays of this library far below -100). This is an unselected part of the compounds tested.

SMILES,percent effect
Cc1cc(N2CCOC(C)(C(=O)N(C)C)C2)ncn1 (stereo not shown),-8.387%
CC1CCc2[nH]c(=O)c(C(=O)N3CCc4ccccc4C3)cc2C1 (stereo not shown),16.89%
CN1CCOC(CNCC(=O)NCCCc2ccccc2)C1 (stereo not shown),-13.97%
O=S(=O)(c1c(N2CCCC2)ccc2nonc12)N1CCCC1,-6.487%
Cc1noc(Cl)c1CCC(=O)N1CCN(Cc2ccncc2)CC1,-14.74%
COc1ccc(-n2ccc(C(=O)NCCn3ccnc3)n2)cc1,-4.664%
Cc1noc(C)c1CN1CCn2cc(CNC(=O)C3CCC3)nc2C1.O=C(O)C(F)(F)F,16.08%
O=C1CC(c2ccc(C(=O)O)cc2)c2ncn(-c3cccnc3)c2N1 (stereo not shown),-33.84%
CCc1cnc(C)nc1NC1CC(=O)N(CC2CCCCC2)C1 (stereo not shown),15.55%
COc1cn(CC(=O)N2CCC(c3ccccc3)CC2)c(C)cc1=O,-2.372%
Nc1nccnc1C1CN(C(=O)c2cnccn2)CCO1 (stereo not shown),-15.34%
[H][C@@]12CCC(=O)N(CCc3c[nH]cn3)[C@]1([H])CCN(Cc1cccnc1)C2,8.628%
COc1cccc(CNC2CCc3ccc(C)cc32)n1 (stereo not shown),31.32%
Cc1oc(-c2ccsc2)nc1CC(=O)NCC(=O)Nc1cn[nH]c1,17.72%
CN1CCN2CCN(Cc3ccccc3Cn3cccn3)CC2C1 (stereo not shown),8.174%
CCC(C(=O)NCc1ccncc1)N(c1ccc(OC)cc1)S(C)(=O)=O (stereo not shown),23.81%
CC(CN1CCOCC1)NCc1nncn1C1CCCCC1 (stereo not shown),12.09%
CC(=O)NCC(=O)N1Cc2ccnn2CC(COCCN(C)C)C1 (stereo not shown),-33.12%
CCC(CNC(=O)C1CC1)(OC)c1ccccc1 (stereo not shown),-37.02%
Cc1n[nH]c(C(=O)N2CCCC(C)CC2)c1Br (stereo not shown),-24.95%
CC(=O)N(C)c1nc(Cn2nnnc2C(C)C)cs1,6.728%
Cc1cccc(-c2noc(CN3CCCCC3Cn3cncn3)n2)c1 (stereo not shown),24.21%
COc1cccc(-c2nc(CNCCCn3cccn3)cs2)c1,10.14%
Cn1cnc2cc(CCC(=O)Nc3n[nH]c(C4CC4)n3)ccc21,40.07%
N#Cc1cccnc1NCc1cccnc1N1CCC(C(N)=O)CC1,23.25%
Cc1cc(-c2cnc(N3CCNC(=O)C3)nc2-c2ccoc2C)on1,8.424%
CSCC(CCO)NC(=O)c1cccc(C)c1Cl (stereo not shown),12.11%
Cc1ccc(C2CCCCCN2Cc2cn(C)nc2C)s1 (stereo not shown),0.9063%
CN(Cc1ccccc1)C1COC2(CCN(Cc3nccs3)CC2)C1.O=C(O)C(F)(F)F (stereo not shown),21.18%
Cn1cc(CNC2CCCOc3c(Cl)cccc32)cn1 (stereo not shown),11.42%
COc1ccc(CNC(=O)NC2CCN(C)CC2)c(C(F)(F)F)c1,5.897%
COc1ccc(Cl)cc1C(=O)NCCNc1cnccn1,-11.43%
COc1ccc2c3c1CN(S(C)(=O)=O)CC3=CC(C)(C)CO2,-9.636%
CN1CCC2(C=C(C(=O)N3CCCC3)c3ccccc32)CC1.O=C(O)C(F)(F)F,2.676%
CC(C)(C)n1ncc2c(=O)n(CC(=O)NCc3ccccc3)cnc21,-32.35%
O=C(NCC(O)c1cccs1)c1cccc(Cl)c1 (stereo not shown),-29.85%
O=C(O)C(F)(F)F.O=C(O)C(F)(F)F.[H][C@@]12CCCO[C@]1([H])[C@H](Oc1ccccn1)CN2Cc1nccs1,19.81%
O=C(NCC1(CO)CC1)c1ccccc1C(F)(F)F,12.7%
CCOCCC(=O)NCC1COc2c(cccc2OC)C1 (stereo not shown),19.06%
CCOCC(O)CN1CCN(C(=O)CC(C)(C)C)CC1 (stereo not shown),8.789%
Cc1nc2c(c(NCC3Cc4ccccc4CN3C)n1)CCNCC2 (stereo not shown),4.057%
O=C(c1ccc2[nH]ccc2c1)N1CCn2cc(CN3CCCC3)nc2C1,8.479%
CC(C)N(C)C(=O)c1ccc(CNc2ccncc2Cl)cc1,6.134%
Cc1ccc(-c2noc(C3CCN3C(=O)c3ccc(=O)[nH]n3)n2)s1 (stereo not shown),58.13%
CCOCCCNc1nc(CS(=O)(=O)c2ccccc2)cs1,7.127%
O=C1CN(C(=O)c2cc(Cl)ccc2F)c2ccccc2N1,11.58%

The last 5 entries again:

* O=C(c1ccc2[nH]ccc2c1)N1CCn2cc(CN3CCCC3)nc2C1 : 8.479%
* CC(C)N(C)C(=O)c1ccc(CNc2ccncc2Cl)cc1 : 6.134%
* Cc1ccc(-c2noc(C3CCN3C(=O)c3ccc(=O)[nH]n3)n2)s1 (stereo not shown) : 58.13%
* CCOCCCNc1nc(CS(=O)(=O)c2ccccc2)cs1 : 7.127%
* O=C1CN(C(=O)c2cc(Cl)ccc2F)c2ccccc2N1 : 11.58%

From ChEMBL document CHEMBL3988442, “University of Dundee, Small-Polar-MMV Screening Library” (2021).